Laboratory results from PMC10018365, “Cryo-EM structure of the fully assembled Elongator complex” (Nucleic Acids Research, 2023).
Results are given in words; binding and its absence hold for the method and conditions named. For part of these data: In cells and extracts the contact can be indirect. For part of these data: Where a sequence is shown, tags or fusion partners need not be part of it.

Amino acid sequences for entries named in this document (tags omitted). A change or cut given only in a name is not applied to a line headed by its entry.
UniProt P42935: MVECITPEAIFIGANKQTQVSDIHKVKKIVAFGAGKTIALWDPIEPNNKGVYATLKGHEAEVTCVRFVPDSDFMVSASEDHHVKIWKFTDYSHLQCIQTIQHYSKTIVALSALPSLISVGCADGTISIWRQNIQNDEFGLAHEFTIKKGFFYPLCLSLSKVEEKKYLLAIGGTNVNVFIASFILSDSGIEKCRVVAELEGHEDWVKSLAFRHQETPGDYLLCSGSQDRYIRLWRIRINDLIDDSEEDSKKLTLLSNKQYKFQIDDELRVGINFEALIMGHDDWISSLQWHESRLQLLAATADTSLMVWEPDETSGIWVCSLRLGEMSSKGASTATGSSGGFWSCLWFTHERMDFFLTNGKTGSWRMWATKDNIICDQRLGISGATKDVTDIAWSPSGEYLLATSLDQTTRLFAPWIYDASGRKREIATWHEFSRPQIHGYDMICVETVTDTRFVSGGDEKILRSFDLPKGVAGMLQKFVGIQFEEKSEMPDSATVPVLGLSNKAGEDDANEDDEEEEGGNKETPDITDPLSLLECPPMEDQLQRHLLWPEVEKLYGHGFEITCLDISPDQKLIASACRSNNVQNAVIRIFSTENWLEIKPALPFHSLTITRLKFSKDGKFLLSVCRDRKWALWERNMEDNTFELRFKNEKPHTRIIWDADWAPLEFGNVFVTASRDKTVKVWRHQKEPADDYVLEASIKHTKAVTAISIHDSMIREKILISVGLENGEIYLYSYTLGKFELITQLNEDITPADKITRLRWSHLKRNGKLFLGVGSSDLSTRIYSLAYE
UniProt Q02908: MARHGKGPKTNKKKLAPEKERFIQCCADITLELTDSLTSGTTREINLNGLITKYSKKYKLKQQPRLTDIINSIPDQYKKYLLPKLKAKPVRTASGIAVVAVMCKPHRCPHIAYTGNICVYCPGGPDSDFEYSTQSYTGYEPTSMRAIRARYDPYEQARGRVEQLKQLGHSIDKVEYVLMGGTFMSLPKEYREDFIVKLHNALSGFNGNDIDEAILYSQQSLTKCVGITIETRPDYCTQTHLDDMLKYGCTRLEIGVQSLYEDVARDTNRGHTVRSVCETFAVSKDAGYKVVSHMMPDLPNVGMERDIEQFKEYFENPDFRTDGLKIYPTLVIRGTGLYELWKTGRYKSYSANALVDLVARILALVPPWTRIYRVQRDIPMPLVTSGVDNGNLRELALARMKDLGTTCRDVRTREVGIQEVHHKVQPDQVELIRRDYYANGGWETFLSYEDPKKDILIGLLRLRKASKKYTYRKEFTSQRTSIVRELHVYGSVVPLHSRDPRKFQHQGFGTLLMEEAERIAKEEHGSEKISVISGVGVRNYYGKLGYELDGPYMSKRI
UniProt Q02884: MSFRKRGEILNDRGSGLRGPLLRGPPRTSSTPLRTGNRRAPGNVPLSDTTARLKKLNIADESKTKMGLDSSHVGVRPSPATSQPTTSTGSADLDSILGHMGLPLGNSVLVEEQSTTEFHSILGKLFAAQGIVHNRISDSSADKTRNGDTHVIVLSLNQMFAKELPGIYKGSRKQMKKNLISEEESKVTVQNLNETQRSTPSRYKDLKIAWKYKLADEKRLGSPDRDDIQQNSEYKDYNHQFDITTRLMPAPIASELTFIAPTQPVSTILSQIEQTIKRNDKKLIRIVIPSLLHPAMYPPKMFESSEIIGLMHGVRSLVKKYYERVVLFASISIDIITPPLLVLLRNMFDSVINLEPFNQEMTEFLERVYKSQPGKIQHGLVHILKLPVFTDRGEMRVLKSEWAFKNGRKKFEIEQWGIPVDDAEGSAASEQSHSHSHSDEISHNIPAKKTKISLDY
UniProt Q04868: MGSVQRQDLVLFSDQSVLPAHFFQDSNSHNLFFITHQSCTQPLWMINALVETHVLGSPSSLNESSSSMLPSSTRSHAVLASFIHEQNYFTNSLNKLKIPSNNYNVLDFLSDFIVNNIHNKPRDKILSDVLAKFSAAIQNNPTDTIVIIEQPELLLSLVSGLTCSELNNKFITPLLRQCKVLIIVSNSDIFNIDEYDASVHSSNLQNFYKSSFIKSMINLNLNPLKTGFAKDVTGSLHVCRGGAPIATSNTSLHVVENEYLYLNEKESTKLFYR
UniProt Q00955: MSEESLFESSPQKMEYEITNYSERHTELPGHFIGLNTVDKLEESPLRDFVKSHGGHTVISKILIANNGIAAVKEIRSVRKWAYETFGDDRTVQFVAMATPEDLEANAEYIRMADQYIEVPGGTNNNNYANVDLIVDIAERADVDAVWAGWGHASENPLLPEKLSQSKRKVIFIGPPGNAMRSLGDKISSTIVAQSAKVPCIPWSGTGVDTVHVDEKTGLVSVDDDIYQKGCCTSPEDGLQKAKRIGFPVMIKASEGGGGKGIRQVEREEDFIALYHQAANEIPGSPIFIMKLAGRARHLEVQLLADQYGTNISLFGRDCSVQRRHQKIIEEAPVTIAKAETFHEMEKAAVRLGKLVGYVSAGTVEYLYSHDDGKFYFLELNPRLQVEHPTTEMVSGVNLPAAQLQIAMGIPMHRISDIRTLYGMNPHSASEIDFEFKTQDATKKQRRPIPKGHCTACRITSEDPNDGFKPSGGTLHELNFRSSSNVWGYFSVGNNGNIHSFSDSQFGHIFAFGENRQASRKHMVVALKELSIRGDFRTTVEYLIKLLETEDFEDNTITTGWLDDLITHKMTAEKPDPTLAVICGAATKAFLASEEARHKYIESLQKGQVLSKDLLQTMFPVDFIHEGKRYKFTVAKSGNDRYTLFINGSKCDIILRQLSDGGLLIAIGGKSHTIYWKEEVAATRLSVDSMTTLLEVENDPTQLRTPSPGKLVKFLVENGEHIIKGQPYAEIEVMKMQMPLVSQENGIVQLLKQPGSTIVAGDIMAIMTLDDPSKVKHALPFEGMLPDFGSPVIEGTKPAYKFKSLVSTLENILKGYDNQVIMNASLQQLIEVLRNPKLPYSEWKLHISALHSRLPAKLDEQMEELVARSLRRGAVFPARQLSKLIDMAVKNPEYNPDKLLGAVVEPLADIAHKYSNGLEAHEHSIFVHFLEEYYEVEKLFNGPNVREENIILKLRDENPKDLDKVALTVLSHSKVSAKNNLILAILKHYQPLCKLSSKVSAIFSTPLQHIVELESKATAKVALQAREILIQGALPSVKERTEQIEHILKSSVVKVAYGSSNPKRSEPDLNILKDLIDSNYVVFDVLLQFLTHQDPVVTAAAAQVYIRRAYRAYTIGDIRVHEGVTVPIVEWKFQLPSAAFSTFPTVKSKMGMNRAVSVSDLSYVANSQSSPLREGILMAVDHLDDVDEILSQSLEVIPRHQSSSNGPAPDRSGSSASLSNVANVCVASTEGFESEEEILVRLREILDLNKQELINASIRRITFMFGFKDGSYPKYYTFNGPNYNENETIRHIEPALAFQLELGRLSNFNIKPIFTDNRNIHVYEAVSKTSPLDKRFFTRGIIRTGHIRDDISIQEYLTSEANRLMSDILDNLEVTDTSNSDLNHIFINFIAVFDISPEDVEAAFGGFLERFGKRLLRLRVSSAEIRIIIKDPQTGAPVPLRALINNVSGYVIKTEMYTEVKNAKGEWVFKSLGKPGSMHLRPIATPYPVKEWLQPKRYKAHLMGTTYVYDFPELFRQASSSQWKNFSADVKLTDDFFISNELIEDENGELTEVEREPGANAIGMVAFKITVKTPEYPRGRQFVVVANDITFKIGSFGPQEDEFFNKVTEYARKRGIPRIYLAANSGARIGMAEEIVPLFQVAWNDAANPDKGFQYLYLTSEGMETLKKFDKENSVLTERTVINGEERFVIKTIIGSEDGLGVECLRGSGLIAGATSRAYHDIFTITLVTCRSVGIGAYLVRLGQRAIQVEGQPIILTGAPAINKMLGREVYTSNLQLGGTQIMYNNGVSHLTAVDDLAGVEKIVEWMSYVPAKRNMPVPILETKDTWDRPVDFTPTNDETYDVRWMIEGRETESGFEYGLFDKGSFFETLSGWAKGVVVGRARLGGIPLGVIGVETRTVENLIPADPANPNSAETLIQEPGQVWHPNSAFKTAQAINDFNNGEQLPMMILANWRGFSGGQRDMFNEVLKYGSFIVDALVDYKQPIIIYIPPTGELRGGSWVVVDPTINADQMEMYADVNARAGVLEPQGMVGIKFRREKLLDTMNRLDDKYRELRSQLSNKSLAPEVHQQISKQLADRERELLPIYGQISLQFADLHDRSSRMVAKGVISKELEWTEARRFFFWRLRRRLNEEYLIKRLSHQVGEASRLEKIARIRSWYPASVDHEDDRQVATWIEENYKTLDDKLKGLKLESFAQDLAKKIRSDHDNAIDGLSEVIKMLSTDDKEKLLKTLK

Experiments:
[1] = target: Saccharomyces cerevisiae Elongator complex, fully assembled (Elp1-Elp6) (Saccharomyces cerevisiae) (UniProt Q06706+P42935+Q02908+Q02884+P38874+Q04868); assay: cross-linking; purified ScElongator (2.22 μM) photo-crosslinked with sulfo-SDA (1:500 and 1:1000), UV 365 nm, LC-MS/MS, 3% FDR on residue pairs; both purified
[2] = target: T1, Elp1-(c-myc)3 (S. cerevisiae (endogenous, tagged)) (UniProt Q06706); assay: co-IP; yeast strain with endogenous Elp1 (c-myc), Elp5 (FLAG) and Acc1 (GFP); 8 mg lysate with antibody-coupled Dynabeads or anti-FLAG M2 magnetic beads overnight, washes in B60 buffer, Western blot
T1 sequence: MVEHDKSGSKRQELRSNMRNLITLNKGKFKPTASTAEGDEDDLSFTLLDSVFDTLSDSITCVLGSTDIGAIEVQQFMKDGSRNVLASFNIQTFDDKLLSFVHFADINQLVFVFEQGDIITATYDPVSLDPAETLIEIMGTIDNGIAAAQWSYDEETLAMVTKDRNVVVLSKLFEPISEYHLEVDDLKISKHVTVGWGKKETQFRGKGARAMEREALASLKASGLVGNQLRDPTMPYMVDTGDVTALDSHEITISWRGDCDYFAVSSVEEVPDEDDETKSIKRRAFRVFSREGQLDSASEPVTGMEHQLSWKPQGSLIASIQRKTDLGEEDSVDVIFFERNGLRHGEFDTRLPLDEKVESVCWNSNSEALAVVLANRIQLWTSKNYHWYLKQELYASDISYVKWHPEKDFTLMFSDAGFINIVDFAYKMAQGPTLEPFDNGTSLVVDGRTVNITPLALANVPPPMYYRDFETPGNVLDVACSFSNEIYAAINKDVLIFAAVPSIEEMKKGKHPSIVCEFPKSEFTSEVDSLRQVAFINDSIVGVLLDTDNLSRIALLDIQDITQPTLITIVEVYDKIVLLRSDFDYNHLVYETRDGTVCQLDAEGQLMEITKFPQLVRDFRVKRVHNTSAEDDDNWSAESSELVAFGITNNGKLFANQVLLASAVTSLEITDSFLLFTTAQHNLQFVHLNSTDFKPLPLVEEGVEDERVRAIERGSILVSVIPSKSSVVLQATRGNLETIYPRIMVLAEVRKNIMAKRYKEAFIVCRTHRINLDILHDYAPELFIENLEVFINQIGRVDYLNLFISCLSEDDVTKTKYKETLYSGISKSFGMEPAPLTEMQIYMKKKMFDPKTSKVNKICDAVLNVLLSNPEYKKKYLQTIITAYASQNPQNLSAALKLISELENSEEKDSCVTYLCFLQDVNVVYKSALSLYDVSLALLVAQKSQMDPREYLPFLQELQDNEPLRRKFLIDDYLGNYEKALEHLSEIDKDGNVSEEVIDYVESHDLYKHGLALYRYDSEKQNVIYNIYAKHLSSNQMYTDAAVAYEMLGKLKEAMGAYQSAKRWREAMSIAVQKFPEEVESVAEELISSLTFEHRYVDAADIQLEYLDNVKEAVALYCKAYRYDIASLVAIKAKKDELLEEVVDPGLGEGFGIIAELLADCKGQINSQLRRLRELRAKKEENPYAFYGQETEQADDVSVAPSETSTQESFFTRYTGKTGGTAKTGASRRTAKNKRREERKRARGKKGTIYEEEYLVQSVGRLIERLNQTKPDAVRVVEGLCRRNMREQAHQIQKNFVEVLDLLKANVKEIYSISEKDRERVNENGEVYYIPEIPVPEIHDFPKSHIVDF

[3] = target: T2, Elp5-(FLAG)3 (S. cerevisiae (endogenous, tagged)) (UniProt P38874); assay: as above
T2 sequence: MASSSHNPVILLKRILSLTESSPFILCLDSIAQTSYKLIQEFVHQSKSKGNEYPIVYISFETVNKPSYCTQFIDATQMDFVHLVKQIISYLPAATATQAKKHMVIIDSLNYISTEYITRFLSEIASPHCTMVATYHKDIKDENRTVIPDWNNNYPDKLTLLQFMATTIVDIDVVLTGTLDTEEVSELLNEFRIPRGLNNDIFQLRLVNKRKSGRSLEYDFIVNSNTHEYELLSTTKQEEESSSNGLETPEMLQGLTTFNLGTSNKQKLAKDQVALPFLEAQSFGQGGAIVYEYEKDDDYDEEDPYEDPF

| binding [1] | binding [2] | binding [3] | Substance |
| --- | --- | --- | --- |
| no binding | – | – | Acetyl-CoA carboxylase 1 (from UniProt Q00955 1-2233) (enzyme) |
| – | no binding | no binding | Acc1 (GFP) (from UniProt Q00955 1-2233) (enzyme) |
